# Tested on: P. monodon shrimp
# Test: Total pigment and Astaxanthin enantiomers deposited, commercial ponds, Example 7
# Type: in vivo
# Conditions: feed with 60 ppm; HPLC of dicamphanates
# Protocol: The concentration of total pigment in crustacean specimens extract was carried out by UV/VIS spectrophotometric methods measurement absorbance at 470 nm (A 1%=2100 in Hexane).
# The Astaxanthin enantiometers deposited by the crustaceans specimens, or from its different organs, were quantified by HPLC after derivatization into the corresponding dicamphanates (Vecchi and Muller 1979).
# 7. —Comparison of the different Astaxanthin enantiomers deposited by P. monodon that were given the following three different diets: commercial feed as control; commercial feed containing 120 ppm of Lutein or Zeaxanthin Long Chain Diesters Concentrate; and commercial feed that contained 60 ppm of synthetic Astaxanthin (Carophyll Pink).
# An evaluation was carried on a commercial operation to determine the effect of feeding P. monodon shrimp with the same commercial feed that contained:
# The specimens were seeded at 30/m^2, pl 7, in aerated and lined ponds. The ponds sizes were 0.25 Ha each.
# At three grams weight, the ponds were sampled, the specimens were lyophillized and the dehydrated samples were ground and analyzed.
# The concentration of total pigment in the crustacean specimens extract was carried out by UV/Vis spectrophotometric methods measurement absorbance at 470 nm (A 1%=2100 in hexane).
# The analysis of Astaxanthin R/S enantiomers deposited by the crustacean specimens, were quantified by HPLC after derivatization into the corresponding dicamphanates (Vecchi and Muller 1979), in order to differentiate the Astaxanthin enantiomers.
smiles,measurement,value
"CC1=C(/C=C/C(C)=C/C=C/C(C)=C/C=C/C=C(C)/C=C/C=C(C)/C=C/C2=C(C)C(=O)[C@@H](O)CC2(C)C)C(C)(C)C[C@H](O)C1=O [ROCHE Astaxanthin, Astaxanthin]","3R,3'R Astaxanthin (Cis+Trans) in deposited Astaxanthin",15.1%
same,"3R,3'S Meso-Astaxanthin (Cis+Trans) in deposited Astaxanthin",37.6%
same,"3S,3'S Astaxanthin (Cis+Trans) in deposited Astaxanthin",47.3%

# Reference: patent US10004253B1, “Method for increasing the health condition of crustaceans in aquaculture, survival rate and pigmentation” (priority 2017, dated 2018)
